Results taken from the supplement of paper PMC7661543.
± gives the standard deviation of the averaged measurements. Differences between knockout arms are mostly noise.

Tested on: ZR-75-1
Assay: relative cell number vs DMSO control (72 h) (% of DMSO); higher = less growth inhibition (more cells)
Protocol: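 QMAP-Seq: a pool of 5 breast cancer cell lines (ZR-75-1, SKBR3, HCC-38, MDA-MB-231, BT-20), each carrying 12 doxycycline-inducible Cas9 sgRNA perturbations (11 knockouts plus non-targeting sgNT), was treated with compounds for 72 h at four 10-fold doses (10 nM-10 uM or 1 nM-1 uM range). Barcodes were amplified and sequenced, and cell number was interpolated from 293T spike-in standard curves. The result is expressed as % of the median of DMSO wells. Two biological replicates.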

[1] = sgRNA knockout: sgATF3, 1000 nM
[2] = sgRNA knockout: sgATF3, 10000 nM
[3] = sgRNA knockout: sgATF4, 1000 nM
[4] = sgRNA knockout: sgATF4, 10000 nM
[5] = sgRNA knockout: sgATF6, 1000 nM
[6] = sgRNA knockout: sgATF6, 10000 nM
[7] = sgRNA knockout: sgATG7, 1000 nM
[8] = sgRNA knockout: sgATG7, 10000 nM
[9] = sgRNA knockout: sgERN1, 1000 nM
[10] = sgRNA knockout: sgERN1, 10000 nM
[11] = sgRNA knockout: sgHSF2, 1000 nM
[12] = sgRNA knockout: sgHSF2, 10000 nM
[13] = sgRNA knockout: sgNFE2L2, 10 nM
[14] = sgRNA knockout: sgNFE2L2, 100 nM
[15] = sgRNA knockout: sgNFE2L2, 1000 nM
[16] = sgRNA knockout: sgNFE2L2, 10000 nM
[17] = sgRNA knockout: sgSLC35F2, 10 nM
[18] = sgRNA knockout: sgSLC35F2, 100 nM
[19] = sgRNA knockout: sgSLC35F2, 1000 nM
[20] = sgRNA knockout: sgSLC35F2, 10000 nM
[21] = sgRNA knockout: sgXBP1, 1000 nM
[22] = sgRNA knockout: sgXBP1, 10000 nM

| Compound | relative cell number (sgRNA knockout: sgATF3, 10 nM) | relative cell number (sgRNA knockout: sgATF3, 100 nM) | relative cell number [1] | relative cell number [2] | relative cell number (sgRNA knockout: sgATF4, 10 nM) | relative cell number (sgRNA knockout: sgATF4, 100 nM) | relative cell number [3] | relative cell number [4] | relative cell number (sgRNA knockout: sgATF6, 10 nM) | relative cell number (sgRNA knockout: sgATF6, 100 nM) | relative cell number [5] | relative cell number [6] | relative cell number (sgRNA knockout: sgATG7, 10 nM) | relative cell number (sgRNA knockout: sgATG7, 100 nM) | relative cell number [7] | relative cell number [8] | relative cell number (sgRNA knockout: sgERN1, 10 nM) | relative cell number (sgRNA knockout: sgERN1, 100 nM) | relative cell number [9] | relative cell number [10] | relative cell number (sgRNA knockout: sgHSF2, 10 nM) | relative cell number (sgRNA knockout: sgHSF2, 100 nM) | relative cell number [11] | relative cell number [12] | relative cell number [13] | relative cell number [14] | relative cell number [15] | relative cell number [16] | relative cell number [17] | relative cell number [18] | relative cell number [19] | relative cell number [20] | relative cell number (sgRNA knockout: sgXBP1, 10 nM) | relative cell number (sgRNA knockout: sgXBP1, 100 nM) | relative cell number [21] | relative cell number [22] |
| --- | --- | --- | --- | --- | --- | --- | --- | --- | --- | --- | --- | --- | --- | --- | --- | --- | --- | --- | --- | --- | --- | --- | --- | --- | --- | --- | --- | --- | --- | --- | --- | --- | --- | --- | --- | --- |
| CC(C)n1c(/C=C/C(O)CC(O)CC(=O)O)c(-c2ccc(F)cc2)c2ccccc21 (configuration not stated) [Fluvastatin] | 85.3 ± 17 | 61.6 ± 11 | 67.98 ± 0.28 | 65.3 ± 2.8 | 57.5 ± 3.4 | 81.2 ± 23 | 67.7 ± 31 | 65.8 ± 4.2 | 99.2 ± 23 | 91.4 ± 3.8 | 55.7 ± 3.9 | 89.5 ± 9.3 | 84.1 ± 30 | 71.1 ± 3.3 | 57.6 ± 1.9 | 47.8 ± 12 | 87.5 ± 12 | 77.4 ± 9.2 | 81.5 ± 43 | 75.5 ± 20 | 82 ± 5.2 | 95.2 ± 4.3 | 61.3 ± 13 | 68 ± 17 | 68 ± 2.6 | 63.9 ± 14 | 103 ± 22 | 81.5 ± 3.9 | 111 ± 38 | 49.2 ± 34 | 70.2 ± 17 | 57.1 ± 16 | 91.1 ± 4.2 | 70.1 ± 1.1 | 81.1 ± 20 | 79.1 ± 1.3 |
| Nc1nc(Cl)nc2c1ncn2[C@@H]1O[C@H](CO)[C@@H](O)[C@@H]1F [Clofarabine] | 98.4 ± 37 | 67.7 ± 4 | 28.4 ± 10 | 46.7 ± 0.49 | 67.5 ± 19 | 61.4 ± 45 | 26.5 ± 3.2 | 33.4 ± 10 | 79.6 ± 14 | 75.6 ± 24 | 24.9 ± 18 | 23.5 ± 10 | 119 ± 3.6 | 59 ± 26 | 20.1 ± 3.3 | 26.9 ± 4.4 | 89.6 ± 3.7 | 54.5 ± 12 | 31.4 ± 1.9 | 34.2 ± 1.5 | 123 ± 5.8 | 57.3 ± 11 | 27.3 ± 6.1 | 27.9 ± 6.2 | 81.2 ± 20 | 65.5 ± 16 | 28 ± 2.3 | 26.9 ± 3.4 | 73.4 ± 0.85 | 65.8 ± 17 | 27.2 ± 1.3 | 32.9 ± 7.7 | 92.7 ± 6.9 | 56.6 ± 7.4 | 25.9 ± 5.5 | 26.8 ± 0.98 |
| CCOC(=O)[C@@]1(CCCCCCOc2ccc(Cl)cc2)CO1 [Etomoxir] | 90.4 ± 25 | 108 ± 8.8 | 91.7 ± 20 | 73.1 ± 13 | 107 ± 38 | 137 ± 27 | 102 ± 8.5 | 75.2 ± 14 | 92.7 ± 33 | 83.5 ± 19 | 80 ± 3 | 77 ± 6.8 | 99 ± 31 | 78.5 ± 33 | 68.4 ± 24 | 73.79 ± 0.66 | 82.8 ± 14 | 105 ± 44 | 110 ± 5.2 | 63.3 ± 18 | 98.4 ± 6 | 82.4 ± 12 | 81 ± 18 | 63.5 ± 0.79 | 95.6 ± 7.3 | 108 ± 22 | 98.7 ± 19 | 59.6 ± 20 | 108 ± 5.8 | 65.6 ± 7.4 | 71.6 ± 8 | 53.38 ± 0.38 | 89.6 ± 7.7 | 103 ± 11 | 111.59 ± 0.061 | 54.6 ± 16 |
| C=CCn1c(=O)c2cnc(Nc3ccc(N4CCN(C)CC4)cc3)nc2n1-c1cccc(C(C)(C)O)n1 [MK1775] | 105 ± 2.5 | 95.8 ± 12 | 82.1 ± 7.5 | 29.8 ± 0.74 | 101 ± 35 | 87.3 ± 13 | 91.2 ± 11 | 26.9 ± 10 | 78.8 ± 33 | 87.1 ± 24 | 71.8 ± 13 | 16.3 ± 9 | 83.4 ± 14 | 89.1 ± 11 | 62.3 ± 32 | 27.8 ± 14 | 113.5 ± 0.47 | 86.1 ± 8.3 | 87.4 ± 23 | 31.8 ± 11 | 97 ± 8.6 | 102 ± 13 | 65.6 ± 6.7 | 27.7 ± 3.1 | 109 ± 16 | 78.5 ± 24 | 83.7 ± 34 | 20.8 ± 5.6 | 70.9 ± 13 | 96.3 ± 4.5 | 42.7 ± 5.7 | 14.7 ± 0.44 | 103 ± 6.7 | 88.3 ± 11 | 88.4 ± 8.1 | 27 ± 1.9 |
| CC/C(=C(\c1ccc(O)cc1)c1ccc(OCCN(C)C)cc1)c1ccccc1 [4-Hydroxytamoxifen] | 74.9 ± 17 | 69.3 ± 25 | 46.1 ± 20 | 41.4 ± 9.3 | 68.5 ± 2.3 | 98.1 ± 17 | 64.9 ± 1.4 | 37.3 ± 7 | 65.6 ± 1.3 | 84.1 ± 28 | 75.1 ± 1.5 | 57.7 ± 2.2 | 70.8 ± 16 | 87 ± 40 | 75.2 ± 11 | 34.6 ± 8.6 | 84.9 ± 6.9 | 91.7 ± 9.3 | 64.3 ± 20 | 35.8 ± 14 | 70 ± 3.4 | 72.2 ± 7.1 | 63.2 ± 23 | 40.5 ± 7.6 | 92.7 ± 11 | 71.1 ± 7.1 | 82.6 ± 12 | 38.7 ± 5.4 | 80 ± 13 | 74.6 ± 30 | 76.2 ± 45 | 43 ± 20 | 79.5 ± 4.6 | 70.4 ± 4.1 | 93.6 ± 3.1 | 37.4 ± 3.5 |
| COc1cc(OC)c(/C=C/S(=O)(=O)Cc2ccc(OC)c(NCC(=O)O)c2)c(OC)c1 [Rigosertib] | 72.7 ± 2.6 | 25.3 ± 4.1 | 28.2 ± 1.5 | 20.1 ± 6.5 | 67 ± 39 | 45.5 ± 5.8 | 21.6 ± 8.4 | 21.2 ± 5.1 | 96.2 ± 11 | 37.7 ± 2.3 | 20.7 ± 4 | 15.6 ± 1.3 | 101 ± 9.4 | 50.7 ± 1.8 | 23 ± 5.3 | 20.6 ± 3.4 | 72.5 ± 8.7 | 35.8 ± 16 | 27.4 ± 12 | 26.4 ± 4.8 | 99.6 ± 16 | 44.2 ± 9.9 | 22.9 ± 0.54 | 20.5 ± 2.5 | 94.9 ± 26 | 40.7 ± 3.1 | 20.7 ± 6.7 | 18.8 ± 5.8 | 81.6 ± 25 | 45.1 ± 23 | 24.8 ± 7.5 | 10.2 ± 7.8 | 87.6 ± 22 | 35.3 ± 7.3 | 21.6 ± 1.9 | 17.5 ± 2.9 |
| Cc1ccc(Nc2nccc(N(C)c3ccc4c(C)n(C)nc4c3)n2)cc1S(N)(=O)=O [Pazopanib] | 116 ± 12 | 63.1 ± 3.5 | 109 ± 5.9 | 44.2 ± 2.5 | 87.6 ± 20 | 63.4 ± 15 | 57 ± 25 | 45.04 ± 0.34 | 108 ± 38 | 89.2 ± 50 | 80.5 ± 4.8 | 29 ± 6.5 | 95.8 ± 16 | 71.8 ± 4.6 | 86.9 ± 5 | 41 ± 1.6 | 90.2 ± 1.7 | 115 ± 10 | 94.9 ± 18 | 44.9 ± 9.9 | 109 ± 3.2 | 93.6 ± 11 | 95.8 ± 4.7 | 34.7 ± 8.8 | 106 ± 31 | 91.9 ± 16 | 129 ± 50 | 41.4 ± 11 | 105 ± 73 | 81.3 ± 65 | 71 ± 1.7 | 27.5 ± 0.59 | 118 ± 13 | 95.1 ± 11 | 92.3 ± 36 | 33.7 ± 12 |
